Among the data in publication PMC4043117 are binding values, retold here.

Results are given in words; binding and its absence hold for the method and conditions named. In cells and extracts the contact can be indirect. Some binding calls cover weakened binding; strength is not graded here. Tags and fused reporters may be left off the sequences shown.

In one assay the target is T1, Mis16-Myc (S. pombe) (UniProt O94244).
T1 sequence: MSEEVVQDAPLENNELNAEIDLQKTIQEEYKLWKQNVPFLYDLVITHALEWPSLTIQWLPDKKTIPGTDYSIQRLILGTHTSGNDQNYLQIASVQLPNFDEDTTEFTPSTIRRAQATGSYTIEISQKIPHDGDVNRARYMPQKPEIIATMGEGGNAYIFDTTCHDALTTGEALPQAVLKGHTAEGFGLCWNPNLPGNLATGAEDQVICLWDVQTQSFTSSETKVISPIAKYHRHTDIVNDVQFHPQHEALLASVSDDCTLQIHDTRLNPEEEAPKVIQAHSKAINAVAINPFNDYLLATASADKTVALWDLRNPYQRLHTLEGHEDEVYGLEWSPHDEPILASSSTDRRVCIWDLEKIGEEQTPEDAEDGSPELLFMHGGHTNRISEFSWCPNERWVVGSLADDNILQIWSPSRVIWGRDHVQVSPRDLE
In words: co-IP; 2 g pulverized S. pombe cells expressing the epitope-tagged proteins; anti-GFP, anti-Myc or anti-HA antibody on Protein G Dynabeads; western analysis.

The target of another assay is T2, GST-Mis18 (S. pombe) (UniProt Q9P802).
T2 sequence: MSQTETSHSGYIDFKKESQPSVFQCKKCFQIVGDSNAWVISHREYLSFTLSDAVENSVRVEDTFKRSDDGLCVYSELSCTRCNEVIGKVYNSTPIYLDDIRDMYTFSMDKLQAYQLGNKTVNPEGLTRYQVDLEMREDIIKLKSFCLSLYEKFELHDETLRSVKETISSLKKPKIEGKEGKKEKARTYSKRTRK
Kind of assay: pull-down; GST pulldown on glutathione agarose from lysates of E. coli co-expressing the two proteins; Coomassie-type stained gel.

B1: Hat1-HA (protein, UniProt Q9UTM7 1-378)
chain: MSAVDEWVHNANECIEIVQVNEKHEKDCQYHPSNTYAIFGDAEVIYGYKDLNVTITYECPLMVPKLEISYSERLAPDSGVEPTDIEGTLNTYLKDRSIKVEGNSFDVHSANSIHNYSFNGKTFKILQATVLEASEIMQHLQIFSLFFIEGGSFIDLNDPRWMVYLLYETTEDDYCLRGYCTVYKYYKWDKLIHDGIRARISQFVILPPFQHQGHGSQLYNAIVSTFLKNPKILDFTVEDASEAFDSLRDHCDYKRLLSMGIFSEPDFHPSLSRQWINSKIAETKLTQRQFSRCCELAFTTKLKKLSLLERKSVRLGIKERIFRQNLDVLLQLDKSERIEKIHNAYENQFDEYKQIVKKLPKLKEDSPRKRQKLAQSSS
Take B1: in the assay with Mis16-Myc (S. pombe), the binding entry is “binds”.

B2: 6xHis-Mis16 (protein, UniProt O94244 1-430)
chain: MSEEVVQDAPLENNELNAEIDLQKTIQEEYKLWKQNVPFLYDLVITHALEWPSLTIQWLPDKKTIPGTDYSIQRLILGTHTSGNDQNYLQIASVQLPNFDEDTTEFTPSTIRRAQATGSYTIEISQKIPHDGDVNRARYMPQKPEIIATMGEGGNAYIFDTTCHDALTTGEALPQAVLKGHTAEGFGLCWNPNLPGNLATGAEDQVICLWDVQTQSFTSSETKVISPIAKYHRHTDIVNDVQFHPQHEALLASVSDDCTLQIHDTRLNPEEEAPKVIQAHSKAINAVAINPFNDYLLATASADKTVALWDLRNPYQRLHTLEGHEDEVYGLEWSPHDEPILASSSTDRRVCIWDLEKIGEEQTPEDAEDGSPELLFMHGGHTNRISEFSWCPNERWVVGSLADDNILQIWSPSRVIWGRDHVQVSPRDLE
For the molecule B2, the binding entry in the assay with GST-Mis18 (S. pombe) is given as “binds weakly”.
